At least one compound was matched to its structure with a doubt left. Some entries repeat one wording, which the source may state once for all of them.
Target: T1, human CB2R (Homo sapiens, UniProt P34972)
T1 construct: host or cells: CHO cells
Test: CB2R mediated modulation of cAMP synthesis
Format: cell-based
Conditions: found through the use of the described assays (CB2 agonists); qualitative statement
Protocol: B. CB2R Mediated Modulation of cAMP Synthesis:
CHO cells expressing human CB2R (Euroscreen) were plated at a density of 5000 cells per well in 384 well plates and incubated overnight at 37° C. After removing the media, the cells were treated with test compounds diluted in stimulation buffer containing 1 mM IBMX, 0.25% BSA and 10 uM Forskolin. The assay was incubated for 30 minutes at 37° C. Cells were lysed and the cAMP concentration was measured using DiscoverX-XS cAMP kit, following the manufacturer's protocol. In this setting, agonists will decrease forskolin induced production of cAMP while inverse agonists will further increase forskolin induced production of cAMP. EC50 of agonists were calculated as follows. The maximal amount of cAMP produced by forskolin compared to the level of cAMP inhibited by 1 uM CP55940 is defined as 100%. […] Data was analyzed using a four-parameter logistic model. (Model 205 of XLfit 4.0).

The chains behind the UniProt entries cited, without tags or fusion partners.
UniProt P34972, whole entry: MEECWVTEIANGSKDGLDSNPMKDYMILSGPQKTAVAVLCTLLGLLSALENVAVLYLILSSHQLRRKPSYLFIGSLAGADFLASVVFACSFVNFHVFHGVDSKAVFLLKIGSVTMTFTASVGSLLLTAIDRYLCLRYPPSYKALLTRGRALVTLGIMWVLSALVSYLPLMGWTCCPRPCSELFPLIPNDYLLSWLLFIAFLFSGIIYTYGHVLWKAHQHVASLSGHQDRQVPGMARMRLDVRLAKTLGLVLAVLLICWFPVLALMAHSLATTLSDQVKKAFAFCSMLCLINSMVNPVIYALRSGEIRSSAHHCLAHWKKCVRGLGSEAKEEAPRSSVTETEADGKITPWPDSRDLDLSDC

SMILES | agonistic activity
O=C(Nc1ccc2ccccc2c1)N1CCCN(C(=O)c2ccc(Cl)cc2Cl)CC1 [4-(2,4-Dichloro-benzoyl)-[1,4]diazepane-1-carboxylic acid naphthalen-2-ylamide] | agonistic activity
O=C(CC1CCCC1)N1CCCN(C(=O)Nc2ccc(Br)c(C(F)(F)F)c2)CC1 [4-(2-Cyclopentyl-acetyl)-[1,4]diazepane-1-carboxylic acid (4-bromo-3-trifluoromethyl-phenyl)-amide] | agonistic activity
O=C(CC1CCCC1)N1CCCN(C(=O)Nc2ccc(Br)cc2)CC1 [4-(2-Cyclopentyl-acetyl)-[1,4]diazepane-1-carboxylic acid (4-bromo-phenyl)-amide] | agonistic activity
O=C(Nc1ccc2ccccc2c1)N1CCCN(C(=O)c2cc(Cl)cc(Cl)c2)CC1 [4-(3,5-Dichloro-benzoyl)-[1,4]diazepane-1-carboxylic acid naphthalen-2-ylamide] | agonistic activity
O=C(CCC1CCCC1)N1CCCN(C(=O)Nc2ccc(Cl)cc2)CC1 [4-(3-Cyclopentyl-propionyl)-[1,4]diazepane-1-carboxylic acid (4-chloro-phenyl)-amide] | agonistic activity
O=C(Nc1ccc(Br)cc1)N1CCCN(C(=O)c2ccc(Cl)cc2)CC1 [4-(4-Chloro-benzoyl)-[1,4]diazepane-1-carboxylic acid (4-bromo-phenyl)-amide] | agonistic activity
O=C(Nc1ccc(Br)cc1)N1CCCN(C(=O)C2CCCCC2)CC1 [4-Cyclohexanecarbonyl-[1,4]diazepane-1-carboxylic acid (4-bromo-phenyl)-amide] | agonistic activity
